No constants are given. Whether binding was seen depends on the method and setting. Binding seen in cells or lysates may run through a third protein. Some binding calls cover weakened binding; strength is not graded here.
What was measured:
mCherry-APPL1 [1] = target: T1, mCherry-APPL1 (UniProt Q9UKG1); experiment: FRET or BRET; FRET/FLIM in live primary hippocampal neurons; GFP-Akt1 donor, mCherry-APPL1 acceptor; after dynasore treatment for 5 min
T1 sequence: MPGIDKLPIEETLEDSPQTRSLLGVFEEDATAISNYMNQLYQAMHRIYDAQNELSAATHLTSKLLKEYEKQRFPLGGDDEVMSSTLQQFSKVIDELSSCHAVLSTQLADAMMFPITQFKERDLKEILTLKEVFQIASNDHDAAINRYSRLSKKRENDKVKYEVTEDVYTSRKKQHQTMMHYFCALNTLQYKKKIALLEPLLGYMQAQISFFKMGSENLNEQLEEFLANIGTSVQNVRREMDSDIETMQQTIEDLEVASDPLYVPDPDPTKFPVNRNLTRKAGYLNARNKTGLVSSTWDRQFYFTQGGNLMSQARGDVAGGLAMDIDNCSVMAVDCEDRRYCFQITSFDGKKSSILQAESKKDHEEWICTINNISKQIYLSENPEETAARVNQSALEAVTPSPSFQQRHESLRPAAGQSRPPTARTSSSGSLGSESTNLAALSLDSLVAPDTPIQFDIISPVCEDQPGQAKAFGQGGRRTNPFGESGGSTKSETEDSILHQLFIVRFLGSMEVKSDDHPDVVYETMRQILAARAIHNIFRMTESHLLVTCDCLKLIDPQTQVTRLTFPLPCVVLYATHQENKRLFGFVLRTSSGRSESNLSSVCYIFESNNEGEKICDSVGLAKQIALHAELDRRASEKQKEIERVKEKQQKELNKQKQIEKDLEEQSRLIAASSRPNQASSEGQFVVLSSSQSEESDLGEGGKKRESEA

The chains behind the UniProt entries cited, without tags or fusion partners.
UniProt P31749: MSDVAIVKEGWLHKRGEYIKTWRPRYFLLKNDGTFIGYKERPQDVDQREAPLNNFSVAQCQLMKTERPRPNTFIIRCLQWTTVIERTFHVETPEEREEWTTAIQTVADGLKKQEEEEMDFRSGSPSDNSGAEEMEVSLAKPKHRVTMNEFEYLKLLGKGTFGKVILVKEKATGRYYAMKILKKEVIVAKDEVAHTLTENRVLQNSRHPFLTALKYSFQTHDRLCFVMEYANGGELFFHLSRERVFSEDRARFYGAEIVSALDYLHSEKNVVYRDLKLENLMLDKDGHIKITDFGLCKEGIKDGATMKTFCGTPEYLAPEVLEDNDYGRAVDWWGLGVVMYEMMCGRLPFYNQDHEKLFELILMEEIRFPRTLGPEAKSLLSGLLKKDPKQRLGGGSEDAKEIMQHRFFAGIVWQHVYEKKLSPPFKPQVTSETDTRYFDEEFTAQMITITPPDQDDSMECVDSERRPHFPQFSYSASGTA

mCherry-APPL1 [2] = target: T1, mCherry-APPL1; experiment: FRET or BRET; FRET/FLIM in live primary hippocampal neurons at DIV 7, 37 °C; GFP-Akt1 donor, mCherry fusion acceptor; donor lifetime measured in cell body and growth cone; untreated

binding (mCherry-APPL1 [2]): binds
Substance: GFP-Akt1 (from UniProt P31749 1-480)
binding (mCherry-APPL1 [1]): no binding (condition: after dynasore treatment for 5 min)
